According to the supplement of paper PMC10849652:
This is one part of the list.

The chains behind the UniProt entries cited, without tags or fusion partners. Where a name states a change or a piece, a line headed by the entry shows the natural chain unless it says otherwise.
UniProt Q86VR2, whole entry, looked up: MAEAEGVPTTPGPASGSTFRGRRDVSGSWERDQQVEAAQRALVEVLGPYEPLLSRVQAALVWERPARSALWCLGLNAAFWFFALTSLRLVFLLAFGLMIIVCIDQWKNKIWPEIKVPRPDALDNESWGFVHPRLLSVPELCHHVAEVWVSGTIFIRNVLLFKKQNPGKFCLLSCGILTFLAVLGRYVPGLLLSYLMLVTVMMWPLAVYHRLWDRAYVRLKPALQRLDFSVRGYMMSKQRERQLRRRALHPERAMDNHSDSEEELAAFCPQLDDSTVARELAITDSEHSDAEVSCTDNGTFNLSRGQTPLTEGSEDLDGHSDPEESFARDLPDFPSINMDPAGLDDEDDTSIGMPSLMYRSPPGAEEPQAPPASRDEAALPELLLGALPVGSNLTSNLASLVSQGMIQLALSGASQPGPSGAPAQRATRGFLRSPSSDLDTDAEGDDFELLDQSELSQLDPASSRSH
UniProt P51606: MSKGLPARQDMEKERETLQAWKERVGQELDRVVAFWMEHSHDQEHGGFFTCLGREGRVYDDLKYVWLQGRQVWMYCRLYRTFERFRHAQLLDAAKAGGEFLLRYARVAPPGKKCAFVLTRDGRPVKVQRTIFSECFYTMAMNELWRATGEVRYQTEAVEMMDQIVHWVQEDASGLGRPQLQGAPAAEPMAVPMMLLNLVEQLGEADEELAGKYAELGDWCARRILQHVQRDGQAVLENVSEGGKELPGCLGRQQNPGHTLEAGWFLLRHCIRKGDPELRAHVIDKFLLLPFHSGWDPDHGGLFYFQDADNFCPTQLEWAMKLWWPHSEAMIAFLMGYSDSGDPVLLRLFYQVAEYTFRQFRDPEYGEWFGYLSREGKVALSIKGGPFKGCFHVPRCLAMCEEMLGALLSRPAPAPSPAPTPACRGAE
UniProt Q8TEB9: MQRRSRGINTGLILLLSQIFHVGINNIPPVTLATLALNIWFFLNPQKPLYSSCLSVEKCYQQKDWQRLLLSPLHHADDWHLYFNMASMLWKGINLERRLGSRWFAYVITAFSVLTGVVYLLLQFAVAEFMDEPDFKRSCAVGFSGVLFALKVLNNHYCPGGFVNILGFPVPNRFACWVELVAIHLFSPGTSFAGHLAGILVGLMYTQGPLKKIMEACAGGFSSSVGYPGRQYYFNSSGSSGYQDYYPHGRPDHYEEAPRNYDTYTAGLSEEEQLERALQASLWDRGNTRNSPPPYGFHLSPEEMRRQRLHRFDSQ
UniProt O43353, whole entry, looked up: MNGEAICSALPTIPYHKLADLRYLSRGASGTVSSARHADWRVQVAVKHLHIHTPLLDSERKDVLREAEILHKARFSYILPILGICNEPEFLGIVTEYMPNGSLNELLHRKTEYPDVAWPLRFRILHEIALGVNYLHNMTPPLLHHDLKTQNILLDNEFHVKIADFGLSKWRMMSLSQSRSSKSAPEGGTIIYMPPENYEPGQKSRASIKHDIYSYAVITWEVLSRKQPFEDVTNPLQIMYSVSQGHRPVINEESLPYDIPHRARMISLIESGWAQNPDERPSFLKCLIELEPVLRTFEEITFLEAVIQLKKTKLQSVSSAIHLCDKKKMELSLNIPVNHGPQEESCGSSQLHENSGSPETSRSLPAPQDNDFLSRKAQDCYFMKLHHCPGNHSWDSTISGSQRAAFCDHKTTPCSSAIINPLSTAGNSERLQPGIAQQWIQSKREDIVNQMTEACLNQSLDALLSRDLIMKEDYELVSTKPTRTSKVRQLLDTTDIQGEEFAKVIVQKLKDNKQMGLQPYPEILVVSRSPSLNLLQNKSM
UniProt Q9NTX7: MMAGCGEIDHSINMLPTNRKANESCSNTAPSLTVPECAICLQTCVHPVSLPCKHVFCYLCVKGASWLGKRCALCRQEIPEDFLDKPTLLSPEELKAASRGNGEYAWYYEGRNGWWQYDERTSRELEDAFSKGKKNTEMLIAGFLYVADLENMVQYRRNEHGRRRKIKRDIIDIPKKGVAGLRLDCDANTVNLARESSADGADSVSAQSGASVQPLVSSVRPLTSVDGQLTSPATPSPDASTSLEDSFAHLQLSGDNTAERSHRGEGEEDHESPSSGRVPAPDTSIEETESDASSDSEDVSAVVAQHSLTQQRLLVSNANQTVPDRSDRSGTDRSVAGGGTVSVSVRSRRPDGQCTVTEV
UniProt Q5XPI4: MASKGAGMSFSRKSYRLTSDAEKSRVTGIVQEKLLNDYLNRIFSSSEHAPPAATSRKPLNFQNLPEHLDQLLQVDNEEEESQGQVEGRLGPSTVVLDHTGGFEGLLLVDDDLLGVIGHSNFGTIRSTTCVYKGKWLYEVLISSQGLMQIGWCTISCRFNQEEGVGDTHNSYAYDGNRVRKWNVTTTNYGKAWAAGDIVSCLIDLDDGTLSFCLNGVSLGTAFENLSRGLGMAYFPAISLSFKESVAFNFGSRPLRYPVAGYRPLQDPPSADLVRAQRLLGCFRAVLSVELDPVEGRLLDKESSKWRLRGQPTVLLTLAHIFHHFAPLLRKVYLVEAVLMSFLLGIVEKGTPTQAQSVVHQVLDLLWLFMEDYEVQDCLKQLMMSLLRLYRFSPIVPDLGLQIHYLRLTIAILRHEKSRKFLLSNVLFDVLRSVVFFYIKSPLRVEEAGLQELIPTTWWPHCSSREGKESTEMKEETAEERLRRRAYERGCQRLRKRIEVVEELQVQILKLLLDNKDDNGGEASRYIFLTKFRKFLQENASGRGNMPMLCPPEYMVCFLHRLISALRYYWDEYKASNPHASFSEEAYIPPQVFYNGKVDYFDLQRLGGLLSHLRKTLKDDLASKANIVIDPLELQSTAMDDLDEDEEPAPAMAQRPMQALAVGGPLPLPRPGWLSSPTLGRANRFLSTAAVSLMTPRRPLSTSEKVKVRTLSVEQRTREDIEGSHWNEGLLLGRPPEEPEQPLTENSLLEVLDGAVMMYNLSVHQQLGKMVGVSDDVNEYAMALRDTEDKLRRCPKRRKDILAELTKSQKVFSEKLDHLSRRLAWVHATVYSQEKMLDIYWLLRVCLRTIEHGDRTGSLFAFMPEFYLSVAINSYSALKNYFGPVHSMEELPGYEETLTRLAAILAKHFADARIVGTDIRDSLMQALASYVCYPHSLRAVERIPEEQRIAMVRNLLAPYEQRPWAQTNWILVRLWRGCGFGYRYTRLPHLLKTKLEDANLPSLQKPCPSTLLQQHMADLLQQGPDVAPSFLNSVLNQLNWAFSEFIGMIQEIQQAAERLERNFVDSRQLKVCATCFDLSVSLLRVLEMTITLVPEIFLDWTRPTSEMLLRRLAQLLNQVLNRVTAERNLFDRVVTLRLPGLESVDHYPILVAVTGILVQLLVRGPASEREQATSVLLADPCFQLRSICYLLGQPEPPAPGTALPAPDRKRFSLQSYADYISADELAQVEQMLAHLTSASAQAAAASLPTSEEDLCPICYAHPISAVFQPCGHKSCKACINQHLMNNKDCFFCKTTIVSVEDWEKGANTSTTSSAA
UniProt Q9H1K0: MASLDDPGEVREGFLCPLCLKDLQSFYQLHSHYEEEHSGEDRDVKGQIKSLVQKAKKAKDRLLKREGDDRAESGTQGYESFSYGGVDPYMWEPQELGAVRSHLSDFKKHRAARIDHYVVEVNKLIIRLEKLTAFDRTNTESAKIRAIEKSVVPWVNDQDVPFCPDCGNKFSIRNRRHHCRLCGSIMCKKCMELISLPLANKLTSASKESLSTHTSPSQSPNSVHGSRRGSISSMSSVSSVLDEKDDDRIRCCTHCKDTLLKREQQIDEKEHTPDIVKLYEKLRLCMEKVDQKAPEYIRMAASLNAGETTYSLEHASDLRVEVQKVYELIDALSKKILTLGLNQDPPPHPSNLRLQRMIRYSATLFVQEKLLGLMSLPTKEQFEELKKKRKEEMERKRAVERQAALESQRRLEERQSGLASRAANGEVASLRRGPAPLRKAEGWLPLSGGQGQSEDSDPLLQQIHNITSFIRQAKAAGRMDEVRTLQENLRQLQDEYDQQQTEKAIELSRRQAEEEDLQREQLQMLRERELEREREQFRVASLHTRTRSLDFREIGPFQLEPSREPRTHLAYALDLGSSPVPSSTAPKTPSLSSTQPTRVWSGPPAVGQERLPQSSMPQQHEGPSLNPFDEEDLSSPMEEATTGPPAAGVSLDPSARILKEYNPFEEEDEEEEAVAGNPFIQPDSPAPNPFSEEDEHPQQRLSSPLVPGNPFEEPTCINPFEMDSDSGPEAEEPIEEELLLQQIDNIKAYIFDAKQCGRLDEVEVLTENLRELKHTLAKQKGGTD
UniProt Q8WVD5: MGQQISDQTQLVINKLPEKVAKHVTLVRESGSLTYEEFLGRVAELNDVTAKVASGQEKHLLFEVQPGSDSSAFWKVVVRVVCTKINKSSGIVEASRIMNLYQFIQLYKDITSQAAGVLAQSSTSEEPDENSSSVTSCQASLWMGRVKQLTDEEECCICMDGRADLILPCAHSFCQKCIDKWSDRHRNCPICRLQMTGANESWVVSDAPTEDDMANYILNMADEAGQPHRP
UniProt Q9UKL0, whole entry, looked up: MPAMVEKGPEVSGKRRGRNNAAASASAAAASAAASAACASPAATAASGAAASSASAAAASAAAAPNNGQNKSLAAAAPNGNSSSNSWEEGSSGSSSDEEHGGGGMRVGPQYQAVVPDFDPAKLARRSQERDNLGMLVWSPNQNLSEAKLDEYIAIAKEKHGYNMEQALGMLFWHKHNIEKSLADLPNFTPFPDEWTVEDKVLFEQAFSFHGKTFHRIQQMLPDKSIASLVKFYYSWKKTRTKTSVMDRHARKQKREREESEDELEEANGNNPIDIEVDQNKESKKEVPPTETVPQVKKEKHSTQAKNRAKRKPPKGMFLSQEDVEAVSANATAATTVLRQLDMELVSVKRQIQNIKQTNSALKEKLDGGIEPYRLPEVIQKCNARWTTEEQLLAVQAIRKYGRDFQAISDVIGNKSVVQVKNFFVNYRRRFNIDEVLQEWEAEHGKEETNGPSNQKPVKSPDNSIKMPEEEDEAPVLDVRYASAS
UniProt Q9P2R6: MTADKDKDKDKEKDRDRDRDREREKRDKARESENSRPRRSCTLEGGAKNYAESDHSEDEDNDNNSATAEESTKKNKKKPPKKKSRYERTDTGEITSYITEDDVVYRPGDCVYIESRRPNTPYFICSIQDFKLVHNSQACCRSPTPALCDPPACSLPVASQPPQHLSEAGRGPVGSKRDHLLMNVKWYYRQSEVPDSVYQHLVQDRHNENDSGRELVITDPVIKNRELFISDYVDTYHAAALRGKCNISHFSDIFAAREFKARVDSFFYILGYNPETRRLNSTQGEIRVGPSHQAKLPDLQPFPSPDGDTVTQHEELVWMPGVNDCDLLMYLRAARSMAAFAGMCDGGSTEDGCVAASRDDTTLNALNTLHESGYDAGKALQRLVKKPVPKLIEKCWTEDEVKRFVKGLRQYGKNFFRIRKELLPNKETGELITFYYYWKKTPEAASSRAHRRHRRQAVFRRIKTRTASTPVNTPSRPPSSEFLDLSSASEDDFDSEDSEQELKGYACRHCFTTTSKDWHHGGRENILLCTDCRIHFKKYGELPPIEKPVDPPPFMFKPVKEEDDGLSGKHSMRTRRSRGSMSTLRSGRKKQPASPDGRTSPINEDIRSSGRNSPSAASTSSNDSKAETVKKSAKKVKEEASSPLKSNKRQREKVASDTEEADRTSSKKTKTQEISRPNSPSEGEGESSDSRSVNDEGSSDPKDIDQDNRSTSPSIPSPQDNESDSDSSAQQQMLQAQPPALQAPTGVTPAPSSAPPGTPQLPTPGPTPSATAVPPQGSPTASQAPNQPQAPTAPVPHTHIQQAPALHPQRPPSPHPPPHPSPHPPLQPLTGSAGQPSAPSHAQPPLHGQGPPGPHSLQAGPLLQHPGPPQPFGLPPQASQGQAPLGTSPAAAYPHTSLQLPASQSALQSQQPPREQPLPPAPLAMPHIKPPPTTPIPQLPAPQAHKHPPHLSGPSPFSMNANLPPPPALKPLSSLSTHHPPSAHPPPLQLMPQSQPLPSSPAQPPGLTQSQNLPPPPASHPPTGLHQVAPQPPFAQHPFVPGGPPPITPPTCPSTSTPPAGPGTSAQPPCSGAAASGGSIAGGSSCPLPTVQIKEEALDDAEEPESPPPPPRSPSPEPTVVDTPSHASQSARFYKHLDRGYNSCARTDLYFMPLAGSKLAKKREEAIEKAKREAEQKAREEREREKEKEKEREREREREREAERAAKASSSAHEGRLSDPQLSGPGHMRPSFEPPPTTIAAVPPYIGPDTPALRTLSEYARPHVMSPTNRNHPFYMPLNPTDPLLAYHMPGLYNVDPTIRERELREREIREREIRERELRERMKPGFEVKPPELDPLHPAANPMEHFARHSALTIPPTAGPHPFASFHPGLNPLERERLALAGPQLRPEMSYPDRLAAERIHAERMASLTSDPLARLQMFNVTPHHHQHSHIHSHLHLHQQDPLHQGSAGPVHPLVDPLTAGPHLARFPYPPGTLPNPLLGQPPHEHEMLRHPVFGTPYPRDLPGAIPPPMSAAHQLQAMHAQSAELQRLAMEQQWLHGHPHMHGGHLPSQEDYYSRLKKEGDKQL

Columns and labels:
Assay in all cases: log2 fold change, soluble protein after heating vs DMSO (PISA); higher = thermal stabilisation; K562 cells, 10 uM, 30 min; active = over 0.2 and 3.5 SD of the protein, either way, in both replicates (recomputed)
[1] = compound: CS(=O)(=O)c1ccc(-c2cnc(N)c(C(=O)Nc3ccccc3)n2)cc1
In short: (§1)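 Values are thermal stability changes relative to control samples and are taken from duplicates. They are stated as log2 fold changes. Before quantification by TMTpro 16plex LC-MS/MS with equalised channel sums, K562 cells at 2×10^6 cells/mL were treated with 10 μM compound for 30 min, heated in aliquots for 3 min across 48°C-58°C, pooled, extracted in PBS with 0.5% NP-40 at 4°C, and centrifuged at 21,000xg for 90 min to give the soluble supernatant.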

crizotinib = compound: C[C@@H](Oc1cc(-c2cnn(C3CCNCC3)c2)cnc1N)c1c(Cl)ccc(F)c1Cl [crizotinib]
In short: as §1

[2] = compound: C[C@@H]1COCCN1C2=NC(=NC(=C2)C3(CC3)S(=O)(=O)C)C4=C5C=CNC5=CC=C4
In short: as §1

[3] = compound: C[C@H](C1=CC=C(C=C1)C(=O)NC2=C3C=CNC3=NC=C2)N
In short: as §1

duvelisib = compound: C[C@H](Nc1ncnc2nc[nH]c12)c1cc2cccc(Cl)c2c(=O)n1-c1ccccc1 [duvelisib]
In short: as §1

gandotinib = compound: Cc1cc(Nc2cc(CN3CCOCC3)c3nc(C)c(Cc4ccc(Cl)cc4F)n3n2)n[nH]1 [gandotinib]
In short: as §1

tozasertib = compound: Cc1cc(Nc2cc(N3CCN(C)CC3)nc(Sc3ccc(NC(=O)C4CC4)cc3)n2)n[nH]1 [tozasertib]
In short: as §1

[4] = compound: Cc1cc(SCc2sc(-c3ccc(C(F)(F)F)cc3)nc2C)ccc1OCC(=O)O
In short: as §1

doramapimod = compound: Cc1ccc(-n2nc(C(C)(C)C)cc2NC(=O)Nc2ccc(OCCN3CCOCC3)c3ccccc23)cc1 [doramapimod]
In short: as §1

ispinesib = compound: Cc1ccc(C(=O)N(CCCN)[C@@H](c2nc3cc(Cl)ccc3c(=O)n2Cc2ccccc2)C(C)C)cc1 [ispinesib]
In short: as §1

Measured: log2 fold change

RMDN1 (UniProt Q96DB5)
inactive: [1] 0.028 | crizotinib -0.058 | [2] 0.066 | [3] -0.04 | duvelisib 0.02 | gandotinib -0.022 | tozasertib 0.026 | [4] 0.025 | doramapimod -0.001 | ispinesib -0.08

RILPL1 (UniProt Q5EBL4)
inactive: [1] -0.102 | crizotinib 0.024 | [2] -0.038 | [3] -0.028 | duvelisib 0.019 | tozasertib 0.12 | [4] -0.124 | doramapimod -0.034 | ispinesib -0.227

RBM39 (UniProt Q14498)
inactive: [1] -0.043 | crizotinib -0.114 | [2] 0.033 | [3] -0.01 | gandotinib -0.052 | [4] 0.036 | doramapimod -0.02 | ispinesib -0.032

RIPK1 (UniProt Q13546)
inactive: [1] 0.058 | crizotinib 0.274 | [2] -0.01 | [3] 0.09 | gandotinib 0.301 | [4] 0.118 | doramapimod 0.031 | ispinesib -0.155
active: tozasertib 1.05

RETREG3 (UniProt Q86VR2)
inactive: [1] 0.016 | crizotinib -0.076 | [2] 0.081 | [3] 0.024 | gandotinib 0.007 | [4] 0.033 | doramapimod -0.052
active: ispinesib -0.459

RHAG (UniProt Q02094)
inactive: [1] 0.034 | crizotinib -0.154 | [2] -0.033 | [3] -0.16 | duvelisib 0.032 | gandotinib -0.082 | tozasertib 0.041 | [4] 0.064 | doramapimod 0.09 | ispinesib -0.06

RENBP (UniProt P51606)
inactive: [1] -0.012 | crizotinib 0.073 | [2] 0.012 | [3] -0.2 | duvelisib 0.087 | gandotinib -0.058 | tozasertib -0.01 | [4] 0 | doramapimod 0.017 | ispinesib 0.016

RHBDD1 (UniProt Q8TEB9)
inactive: [1] -0.071 | crizotinib -0.136 | [2] -0.058 | [3] -0.01 | duvelisib -0.022 | gandotinib -0.019 | [4] -0.007 | doramapimod -0.053 | ispinesib -0.147

RCSD1 (UniProt Q6JBY9)
inactive: [1] 0.076 | crizotinib 0.019 | [2] -0.027 | [3] 0.04 | duvelisib 0.003 | gandotinib 0.005 | tozasertib -0.033 | [4] -0.082 | doramapimod -0.011 | ispinesib -0.071

RNF213 isoform 4 (UniProt Q63HN8)
inactive: [1] -0.027 | crizotinib -0.069 | [2] -0.06 | [3] 0.116 | duvelisib 0.006 | gandotinib -0.003 | tozasertib 0.179 | [4] 0.052 | doramapimod 0.242 | ispinesib -0.158

RIPK2 (UniProt O43353)
inactive: [1] -0.017 | crizotinib -0.109 | [2] 0.045 | [3] -0.017 | duvelisib 0.044 | gandotinib 0.003 | tozasertib -0.036 | [4] 0.084 | doramapimod -0.011 | ispinesib 0.054

RNF121 (UniProt Q9H920)
inactive: [1] 0.078 | crizotinib -0.012 | [2] 0.054 | [3] -0.071 | duvelisib 0.01 | gandotinib -0.07 | tozasertib -0.017 | [4] 0.039 | doramapimod 0.016 | ispinesib 0.026

RNF146 (UniProt Q9NTX7)
inactive: [1] 0.036 | crizotinib 0.028 | [2] 0.229 | [3] 0.166 | duvelisib 0.17 | tozasertib 0.07 | [4] -0.037 | doramapimod 0.01 | ispinesib 0.063

RNF149 (UniProt Q8NC42)
inactive: [1] 0.078 | crizotinib 0.073 | [2] 0.084 | [3] 0.017 | duvelisib 0.031 | gandotinib -0.03 | tozasertib 0.012 | [4] 0.01 | doramapimod -0.029 | ispinesib -0.001

RNF123 isoform 2 (UniProt Q5XPI4)
inactive: [1] -0.021 | crizotinib 0.183 | [2] 0.066 | [3] -0.049 | duvelisib 0.022 | gandotinib -0.164 | tozasertib 0.04 | [4] 0.079 | doramapimod 0.071 | ispinesib -0.024

RCOR3 isoform 3 (UniProt Q9P2K3)
inactive: [1] -0.039 | crizotinib -0.117 | [3] -0.061 | gandotinib -0.015 | [4] 0.104 | doramapimod -0.047 | ispinesib -0.065

RELA (UniProt Q04206)
inactive: [1] 0.03 | crizotinib 0.036 | [2] 0.005 | [3] -0.029 | gandotinib -0.086 | [4] 0.055 | ispinesib 0.017

RBSN (UniProt Q9H1K0)
inactive: [1] -0.22 | crizotinib -0.127 | duvelisib -0.122 | gandotinib -0.124 | tozasertib 0.024 | [4] 0.196 | doramapimod 0.039 | ispinesib -0.045

RNF141 (UniProt Q8WVD5)
inactive: [1] 0.095 | crizotinib 0.101 | gandotinib -0.023 | tozasertib 0.097 | doramapimod 0.001 | ispinesib 0.258

RBM6 (UniProt P78332)
inactive: [1] 0 | crizotinib 0.148 | [3] 0.013 | gandotinib -0.043 | [4] -0.183 | doramapimod 0.032

RHOA (UniProt P61586)
inactive: [1] 0.028 | crizotinib 0.098 | [2] -0.317 | [3] -0.101 | gandotinib 0.022 | [4] -0.035 | doramapimod -0.082 | ispinesib 0.219

RCOR1 (UniProt Q9UKL0)
inactive: [1] 0.011 | crizotinib -0.033 | [2] 0.095 | [3] 0.071 | gandotinib -0.046 | [4] 0.041 | doramapimod 0.001 | ispinesib -0.031

RBM48 isoform 2 (UniProt Q5RL73)
inactive: [1] 0.081 | crizotinib 0.25 | [2] -0.069 | [3] -0.06 | gandotinib 0.152 | doramapimod 0.041 | ispinesib 0.072

RNF220 (UniProt Q5VTB9)
inactive: [1] -0.001 | crizotinib 0.096 | [2] -0.003 | [3] -0.042 | gandotinib -0.012 | [4] -0.011 | doramapimod -0.057 | ispinesib 0.073

RERE (UniProt Q9P2R6)
inactive: [1] 0.102 | crizotinib 0.139 | [2] -0.195 | doramapimod 0.054 | ispinesib -0.37
